Assay results reported in paper PMC3765318, “An efficient protocol for the purification and labeling of entire yeast septin rods from E.coli for quantitative in vitro experimentation” (BMC Biotechnology, 2013).
Results are given in words; binding and its absence hold for the method and conditions named. Some binding calls cover weakened binding; strength is not graded here. Tags and fused reporters may be left off the sequences shown.

T1: 6his-Cdc12 (S. cerevisiae) (UniProt P32468)
T1 sequence: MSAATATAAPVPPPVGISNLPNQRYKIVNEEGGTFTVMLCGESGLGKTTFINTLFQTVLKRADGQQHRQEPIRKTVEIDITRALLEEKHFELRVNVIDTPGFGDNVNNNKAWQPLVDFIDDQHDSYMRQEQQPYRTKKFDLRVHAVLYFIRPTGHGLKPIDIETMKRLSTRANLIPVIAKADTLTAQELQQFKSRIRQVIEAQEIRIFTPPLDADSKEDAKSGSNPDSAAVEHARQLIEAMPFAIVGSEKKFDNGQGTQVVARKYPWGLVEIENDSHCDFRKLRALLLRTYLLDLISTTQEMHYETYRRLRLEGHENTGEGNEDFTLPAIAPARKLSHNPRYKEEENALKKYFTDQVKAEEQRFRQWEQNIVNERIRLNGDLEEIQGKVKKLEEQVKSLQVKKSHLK

T2: Cdc10-SNAP labeled with BG-biotin (S. cerevisiae), P25342
T2 chain: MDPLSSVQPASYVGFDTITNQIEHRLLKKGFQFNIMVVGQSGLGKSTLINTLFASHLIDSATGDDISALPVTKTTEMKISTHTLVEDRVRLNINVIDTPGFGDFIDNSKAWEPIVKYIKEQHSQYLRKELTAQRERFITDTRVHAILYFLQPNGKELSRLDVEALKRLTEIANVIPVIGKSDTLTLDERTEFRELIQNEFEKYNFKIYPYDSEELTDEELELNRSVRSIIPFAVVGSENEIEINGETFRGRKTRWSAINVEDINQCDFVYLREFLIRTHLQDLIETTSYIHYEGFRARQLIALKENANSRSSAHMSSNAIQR


Legend:
[1] = biological target: T1, 6his-Cdc12 (S. cerevisiae); assay: SEC; purified septin rods on Superose 6 10/300 GL in 300 mM NaCl, 50 mM Tris-HCl pH 8.0; peak fraction analysed by SDS-PAGE and Western blot (anti-Cdc3, anti-6his, anti-S tag); both purified
[2] = biological target: T1, 6his-Cdc12 (S. cerevisiae); assay: co-purification (IMAC + anion exchange); four septins co-expressed in E. coli; rod captured from the clarified lysate via the 6his tag of Cdc12 on HisTrap-HP, then Resource Q; subunits seen by Coomassie SDS-PAGE
[3] = biological target: T1, 6his-Cdc12 (S. cerevisiae); assay: isoelectric focusing; purified septin rods on precast pH 3-10 IEF gels; the single band excised and separated by denaturing SDS-PAGE, Coomassie staining; both purified
[4] = biological target: T2, Cdc10-SNAP labeled with BG-biotin (S. …); assay: SPR; Biacore X100; biotinylated SNAP tagged rod captured through Cdc10-SNAP on an anti-biotin antibody coated CM5 chip; Cdc11 detected by two 60 s pulses of anti-S tag antibody (20 ug/ml) 2 h of washing apart; MSP buffer (10 mM MES, 150 mM NaCl, 0.05% Tween 20, pH 7.4); both purified; conditions: remark: other sources report otherwise

binding [1]	binding [2]	binding [3]	binding [4]	Binder
binds	binds	binds	–	Cdc10 fused to the S tag (protein, UniProt P25342 1-322) MDPLSSVQPASYVGFDTITNQIEHRLLKKGFQFNIMVVGQSGLGKSTLINTLFASHLIDSATGDDISALPVTKTTEMKISTHTLVEDRVRLNINVIDTPGFGDFIDNSKAWEPIVKYIKEQHSQYLRKELTAQRERFITDTRVHAILYFLQPNGKELSRLDVEALKRLTEIANVIPVIGKSDTLTLDERTEFRELIQNEFEKYNFKIYPYDSEELTDEELELNRSVRSIIPFAVVGSENEIEINGETFRGRKTRWSAINVEDINQCDFVYLREFLIRTHLQDLIETTSYIHYEGFRARQLIALKENANSRSSAHMSSNAIQR
binds	binds	binds	–	Cdc10-SNAP (protein, UniProt P25342 1-322) MDPLSSVQPASYVGFDTITNQIEHRLLKKGFQFNIMVVGQSGLGKSTLINTLFASHLIDSATGDDISALPVTKTTEMKISTHTLVEDRVRLNINVIDTPGFGDFIDNSKAWEPIVKYIKEQHSQYLRKELTAQRERFITDTRVHAILYFLQPNGKELSRLDVEALKRLTEIANVIPVIGKSDTLTLDERTEFRELIQNEFEKYNFKIYPYDSEELTDEELELNRSVRSIIPFAVVGSENEIEINGETFRGRKTRWSAINVEDINQCDFVYLREFLIRTHLQDLIETTSYIHYEGFRARQLIALKENANSRSSAHMSSNAIQR
binds	binds	binds	–	FLAG-Cdc3 (protein, UniProt P32457 1-520) MSLKEEQVSIKQDPEQEERQHDQFNDVQIKQESQDHDGVDSQYTNGTQNDDSERFEAAESDVKVEPGLGMGITSSQSEKGQVLPDQPEIKFIRRQINGYVGFANLPKQWHRRSIKNGFSFNLLCVGPDGIGKTTLMKTLFNNDDIEANLVKDYEEELANDQEEEEGQGEGHENQSQEQRHKVKIKSYESVIEENGVKLNLNVIDTEGFGDFLNNDQKSWDPIIKEIDSRFDQYLDAENKINRHSINDKRIHACLYFIEPTGHYLKPLDLKFMQSVYEKCNLIPVIAKSDILTDEEILSFKKTIMNQLIQSNIELFKPPIYSNDDAENSHLSERLFSSLPYAVIGSNDIVENYSGNQVRGRSYPWGVIEVDNDNHSDFNLLKNLLIKQFMEELKERTSKILYENYRSSKLAKLGIKQDNSVFKEFDPISKQQEEKTLHEAKLAKLEIEMKTVFQQKVSEKEKKLQKSETELFARHKEMKEKLTKQLKALEDKKKQLELSINSASPNVNHSPVPTKKKGFLR
–	–	–	binds	Cdc11 fused to the S tag, P32458 1-415 (protein, here or on the partner: biotin, covalently attached with BG-Biotin to the SNAP tag) MSGIIDASSALRKRKHLKRGITFTVMIVGQSGSGRSTFINTLCGQQVVDTSTTILLPTDTSTEIDLQLREETVELEDDEGVKIQLNIIDTPGFGDSLDNSPSFEIISDYIRHQYDEILLEESRVRRNPRFKDGRVHCCLYLINPTGHGLKEIDVEFIRQLGSLVNIIPVISKSDSLTRDELKLNKKLIMEDIDRWNLPIYNFPFDEDEISDEDYETNMYLRTLLPFAIIGSNEVYEMGGDVGTIRGRKYPWGILDVEDSSISDFVILRNALLISHLHDLKNYTHEILYERYRTEALSGESVAAESIRPNLTKLNGSSSSSTTTRRNTNPFKQSNNINNDVLNPASDMHGQSTGENNETYMTREEQIRLEEERLKAFEERVQQELLLKRQELLQREKELREIEARLEKEAKIKQEE
